Experimental data: paper PMC12209172, “Poly(ADP-ribose)polymerase 2 is zinc-dependent enzyme and nucleosome reorganizer” (Cellular and Molecular Life Sciences: CMLS, 2025)
Values joined by “and” are separate entries in the source; they are usually repeats but may differ in a detail not shown here. Identical values can stand only once. This continues a long series; more values of the same kind are listed elsewhere.

Protein sequences, listed by entry. Tags and fused reporters are not part of them. Residues count along the entry.
UniProt Q9UGN5, 77-220: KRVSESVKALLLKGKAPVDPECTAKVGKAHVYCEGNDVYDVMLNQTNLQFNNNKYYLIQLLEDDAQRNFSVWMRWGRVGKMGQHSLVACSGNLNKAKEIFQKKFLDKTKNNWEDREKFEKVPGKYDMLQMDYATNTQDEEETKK

Molecular target: T1, WGR domain of PARP2 (Homo sapiens, UniProt Q9UGN5)
T1 construct: WGR domain of PARP2 (residues 77–220) into pET-15b-TEV expression vector; 6xHis (pET-15b-TEV) (N, cleaved yes); made in house; host or cells: Escherichia coli Rosetta2 (DE3) pLysS
Assay: Tryptophan fluorescence spectroscopy of the WGR domain titrated with divalent cations (one site binding fit)
Settings: listed as Zn
Experimental: Fluorescence spectra of Trp residues were measured in the 300–450 nm spectral range at the 270 nm excitation wavelengths using the Cary Eclipse spectrofluorometer (Varian/Agilent, USA).
Fluorescence of WGR domain was measured at 0.5 or 5 µM in a buffer containing 10 mM HEPES (pH 8.0), 150 mM NaCl and 0.73 or 7.3 µM EDTA, respectively. Solutions were complemented with ZnCl2 (0.2–308 µM) or MgCl2 (15–5000 µM), or CaCl2 (8–5000 µM) dissolved in a buffer containing 10 mM HEPES (pH 8.0), 150 mM NaCl. Intensity of the measured spectra was corrected for the concomitant dilution of the WGR domain. Integral intensities (Ifl.) of fluorescence spectra were averaged over three independent measurements (mean ± SEM) and used to plot the corresponding Ifl. vs. ion concentration graphs. Data were fitted with the one site binding equation:2 [drawing 2]
Where C is the concentration of divalent cations, Kd is a dissociation constant of the complex, Im and Ifl0 are maximal and initial values of Ifl., respectively.

[Cl-].[Cl-].[Zn+2] [Zn2+, ZnCl2]
fluorescence intensity (Fig 3d) (wavelength 334.000, 5.9 uM Zn): 94.488 and 73.764
fluorescence intensity (Fig 3d) (wavelength 334.000, 11.6 uM Zn): 109.935 and 117.803
fluorescence intensity (Fig 3d) (wavelength 334.000, 17.2 uM): 134.079 and 123.008 and 122.422 and 122.634
fluorescence intensity (Fig 3d) (wavelength 334.000, 22.1 uM): 135.200 and 123.612 and 122.696 and 125.126
fluorescence intensity (Fig 3d) (wavelength 334.000, 303 uM + 7 mM EDTA): 43.844 and 55.461 and 44.966 and 53.995
fluorescence intensity (Fig 3d) (wavelength 334.000, 308 uM): 134.538 and 127.976 and 128.402 and 125.627
fluorescence intensity (Fig 3d) (wavelength 335.070, 5.9 uM Zn): 69.080 and 76.945 and 96.741 and 75.080
fluorescence intensity (Fig 3d) (wavelength 335.070, 11.6 uM Zn): 129.118 and 113.063 and 111.602 and 121.027
fluorescence intensity (Fig 3d) (wavelength 335.070, 17.2 uM): 136.142 and 124.910 and 124.725 and 124.997
fluorescence intensity (Fig 3d) (wavelength 335.070, 22.1 uM): 136.511 and 125.568 and 125.541 and 127.902
fluorescence intensity (Fig 3d) (wavelength 335.070, 303 uM + 7 mM EDTA): 46.022 and 57.093 and 45.868 and 55.571
fluorescence intensity (Fig 3d) (wavelength 335.070, 308 uM): 137.704 and 129.863 and 131.367 and 126.743
fluorescence intensity (Fig 3d) (wavelength 336.000, 5.9 uM Zn): 70.553 and 79.727 and 96.509 and 76.253
fluorescence intensity (Fig 3d) (wavelength 336.000, 11.6 uM Zn): 131.661 and 113.885 and 111.911 and 121.119
fluorescence intensity (Fig 3d) (wavelength 336.000, 17.2 uM): 136.561 and 125.518 and 124.266 and 126.632
fluorescence intensity (Fig 3d) (wavelength 336.000, 22.1 uM): 140.338 and 126.796 and 126.438 and 127.620
fluorescence intensity (Fig 3d) (wavelength 336.000, 303 uM + 7 mM EDTA): 45.349 and 57.999 and 45.954 and 55.775
fluorescence intensity (Fig 3d) (wavelength 336.000, 308 uM): 138.633 and 131.173 and 132.078 and 128.494
fluorescence intensity (Fig 3d) (wavelength 337.070, 5.9 uM Zn): 70.332 and 80.463 and 97.306 and 76.822
fluorescence intensity (Fig 3d) (wavelength 337.070, 11.6 uM Zn): 132.064 and 114.038 and 114.177 and 121.740
fluorescence intensity (Fig 3d) (wavelength 337.070, 17.2 uM): 137.466 and 128.298 and 126.711 and 127.378
fluorescence intensity (Fig 3d) (wavelength 337.070, 22.1 uM): 140.783 and 129.260 and 126.618 and 130.381
fluorescence intensity (Fig 3d) (wavelength 337.070, 303 uM + 7 mM EDTA): 46.338 and 58.051 and 46.464 and 55.465
fluorescence intensity (Fig 3d) (wavelength 337.070, 308 uM): 140.043 and 132.716 and 132.877 and 130.646
fluorescence intensity (Fig 3d) (wavelength 338.000, 5.9 uM Zn): 70.215 and 81.093 and 98.543 and 77.316
fluorescence intensity (Fig 3d) (wavelength 338.000, 11.6 uM Zn): 133.027 and 114.574 and 115.179 and 121.328
fluorescence intensity (Fig 3d) (wavelength 338.000, 17.2 uM): 139.057 and 129.492 and 127.870 and 128.253
fluorescence intensity (Fig 3d) (wavelength 338.000, 22.1 uM): 140.716 and 130.013 and 129.129 and 129.993
fluorescence intensity (Fig 3d) (wavelength 338.000, 303 uM + 7 mM EDTA): 46.240 and 59.124 and 46.350 and 56.772
fluorescence intensity (Fig 3d) (wavelength 338.000, 308 uM): 141.862 and 133.810 and 134.608 and 132.122
fluorescence intensity (Fig 3d) (wavelength 339.070, 5.9 uM Zn): 71.542 and 81.696 and 99.306 and 78.682
fluorescence intensity (Fig 3d) (wavelength 339.070, 11.6 uM Zn): 134.648 and 118.309 and 115.508 and 124.091
fluorescence intensity (Fig 3d) (wavelength 339.070, 17.2 uM): 142.597 and 131.085 and 130.459 and 129.417
fluorescence intensity (Fig 3d) (wavelength 339.070, 22.1 uM): 143.025 and 129.585 and 130.088 and 130.347
fluorescence intensity (Fig 3d) (wavelength 339.070, 303 uM + 7 mM EDTA): 47.012 and 58.655 and 46.670 and 56.771
fluorescence intensity (Fig 3d) (wavelength 339.070, 308 uM): 142.704 and 134.158 and 134.193 and 132.767
fluorescence intensity (Fig 3d) (wavelength 340.000, 5.9 uM Zn): 71.672 and 81.923 and 100.308 and 79.259
fluorescence intensity (Fig 3d) (wavelength 340.000, 11.6 uM Zn): 136.816 and 118.636 and 117.007 and 124.343
fluorescence intensity (Fig 3d) (wavelength 340.000, 17.2 uM): 142.351 and 129.822 and 131.297 and 132.482
fluorescence intensity (Fig 3d) (wavelength 340.000, 22.1 uM): 143.333 and 131.532 and 132.262 and 133.263
fluorescence intensity (Fig 3d) (wavelength 340.000, 303 uM + 7 mM EDTA): 46.086 and 59.753 and 46.692 and 55.673
fluorescence intensity (Fig 3d) (wavelength 340.000, 308 uM): 145.226 and 135.383 and 137.028 and 132.022
fluorescence intensity (Fig 3d) (wavelength 340.930, 5.9 uM Zn): 71.827 and 81.617 and 100.536 and 78.967
fluorescence intensity (Fig 3d) (wavelength 340.930, 11.6 uM Zn): 135.528 and 118.618 and 117.590 and 125.195
fluorescence intensity (Fig 3d) (wavelength 340.930, 17.2 uM): 142.672 and 131.886 and 132.190 and 130.893
fluorescence intensity (Fig 3d) (wavelength 340.930, 22.1 uM): 144.364 and 131.545 and 131.644 and 132.564
fluorescence intensity (Fig 3d) (wavelength 340.930, 303 uM + 7 mM EDTA): 47.101 and 59.078 and 46.654 and 57.361
fluorescence intensity (Fig 3d) (wavelength 340.930, 308 uM): 143.608 and 134.999 and 137.628 and 134.520
fluorescence intensity (Fig 3d) (wavelength 342.030, 5.9 uM Zn): 72.290 and 81.405 and 101.269 and 78.832
fluorescence intensity (Fig 3d) (wavelength 342.030, 11.6 uM Zn): 137.188 and 118.837 and 118.873 and 125.912
fluorescence intensity (Fig 3d) (wavelength 342.030, 17.2 uM): 143.520 and 132.109 and 132.502 and 130.655
fluorescence intensity (Fig 3d) (wavelength 342.030, 22.1 uM): 144.909 and 131.592 and 130.570 and 133.637
fluorescence intensity (Fig 3d) (wavelength 342.030, 303 uM + 7 mM EDTA): 46.733 and 59.088 and 47.233 and 57.354
fluorescence intensity (Fig 3d) (wavelength 342.030, 308 uM): 143.859 and 136.976 and 137.205 and 134.454
fluorescence intensity (Fig 3d) (wavelength 342.960, 5.9 uM Zn): 72.722 and 83.358 and 100.342 and 79.244
fluorescence intensity (Fig 3d) (wavelength 342.960, 11.6 uM Zn): 137.558 and 119.232 and 118.395 and 124.642
fluorescence intensity (Fig 3d) (wavelength 342.960, 17.2 uM): 142.641 and 132.405 and 133.280 and 132.456
fluorescence intensity (Fig 3d) (wavelength 342.960, 22.1 uM): 144.070 and 131.977 and 133.694 and 132.885
fluorescence intensity (Fig 3d) (wavelength 342.960, 303 uM + 7 mM EDTA): 46.538 and 60.348 and 46.909 and 57.500
fluorescence intensity (Fig 3d) (wavelength 342.960, 308 uM): 144.227 and 135.260 and 137.031 and 133.787
